Log data for 47 compounds are collected here from the supplement of paper PMC7024190.

Structures can show the parent of a compound that is named as a salt. Some of the results follow. Repeats in this data set agree poorly, so a single value says little.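 The cells were human embryonic kidney cells carrying a Renilla luciferase gene, driven by the HSV-TK promoter, on a plasmid put in briefly by transfection. This is the first-round screen of about ten thousand compounds, looking for ones that raise reporter output.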

For this assay, the system named is HEK 293FT. As to the kind of experiment: log relative Renilla luciferase luminescence (reporter expression vs reference, reference not stated) (log (base not stated)); higher = higher recombinant reporter expression. The following applies: 10 µM; time after transfection 48 h.
Turning to `CC(C)CC(N(C)C)C1(c2ccc(Cl)cc2)CCC1` (configuration not stated) [sibutramine hydrochloride], the log was found to be 0.004.

Consider `NC(N)=NOCC[C@H](N)C(=O)O` [canavanine], for which the log amounted to 0.0613.

`O=C([O-])Cc1ccccc1.[Na+]` [sodium phenylacetate]: the log came to 0.147.

In the case of `C[C@]12CC[C@H]3[C@@H](CC[C@]4(O)C[C@@H](O)CC[C@]34C=O)[C@@]1(O)CC[C@@H]2C1=CC(=O)OC1` [strophanthidin], the log was -1.42.

Regarding `O=c1[nH]c(=O)n(Cl)c(=O)n1Cl` [troclosene potassium], the log was 0.047.

With `NC(=O)CN1CCCC1=O` [piracetam], the log was 0.157.

On to `CC(=O)OC1CCC23C(=O)OC45CCC(C6=CC(=O)OC6)C4(C)CCC2C5CCC3(O)C1` (configuration not stated) [strophanthidinic acid lactone acetate], for which the log is -0.987.

With `O=P1(NCCCl)OCCCN1CCCl` (configuration not stated) [ifosfamide], the log is -0.0587.

For `CC(C)c1c(CN(C)C(C)Cc2ccccc2)n(C)n(-c2ccccc2)c1=O` (configuration not stated) [famprofazone], the log amounted to 0.0481.

For `Oc1ccc(Cl)cc1` [parachlorophenol], the log stood at 0.0842.

In the case of `C=C(C)[C@@H]1[C@H]2OC(=O)[C@@H]1[C@]1(O)C[C@H]3O[C@]34C(=O)O[C@H]2[C@]14C` [picrotoxinin], the log amounted to 0.0115.

As to `COc1cc([C@@H]2c3cc4c(c(O)c3C[C@H]3COC(=O)[C@@H]32)OCO4)cc(OC)c1OC` [beta-peltatin], the log came out at 0.0433.

Turning to `NC(=O)C[S+]([O-])C(c1ccccc1)c1ccccc1` (configuration not stated) [modafinil], the log was found to be 0.0773.

Turning to `C[C@@H](CO)NC(=O)[C@@H]1C=C2c3cccc4[nH]cc(c34)C[C@H]2N(C)C1` [ergonovine maleate], the log was -0.0435.

Turning to `Clc1ccc(C(OCCN2CCCCC2)c2ccccc2)cc1` (configuration not stated) [cloperastine hydrochloride], the log was -0.0276.

Consider `C[C@]12CC[C@H](O)C[C@H]1CC[C@@H]1[C@@H]2C[C@@H](O)[C@]2(C)[C@@H](C3=CC(=O)OC3)CC[C@]12O` [digoxigenin], for which the log was -1.37.

Take `NCCc1c[nH]c2ccccc12` [tryptamine]: the log worked out at 0.0043.

Consider `Cc1cccc(C)c1NC1=NCCCS1` [xylazine], for which the log was -0.0325.

Consider `C[C@]12CCC(=O)C=C1CCc1ccc(O)cc12` [12-hydroxy-4,4-bisnor-4,8,11,13-podocarpatetraen-3-one], for which the log is -0.00986.

With `COc1c2c(cc3c1OCO3)CC[N+](C)=C2` [cotarnine chloride], the log was determined as 0.0391.

Take `CC(=O)OCC1=C(C(=O)O)N2C(=O)[C@@H](NC(=O)CCC[C@@H](N)C(=O)O)[C@H]2SC1` [cephalosporin c sodium]: the log is 0.0372.

`CCNC1(c2cccs2)CCCCC1=O` (configuration not stated) [tiletamine hydrochloride]: the log was -0.00902.

As to `Cc1ccc(O)cc1.Cc1cccc(O)c1.Cc1ccccc1O` [cresol], the log came to 0.00801.

Take `CC[C@H]1[C@@H]2C[C@H]3[C@@H]4N(C)c5ccccc5[C@]45C[C@@H]([C@@H]2[C@H]5O)N3[C@@H]1O` [ajmaline]: the log was found to be 0.0223.

On to `CS(=N)(=O)CC[C@H](N)C(=O)O` (some centres not stated) [methionine sulfoximine (l)], for which the log came to 0.0636.

In the case of `C[C@@H]1CC[C@H]2[C@@H](C)C(=O)O[C@@H]3O[C@@]4(C)CC[C@@H]1[C@]32OO4` [artemisinin], the log worked out at 0.0794.

As for `CNC(C)C(O)c1ccccc1` (configuration not stated) [racephedrine hydrochloride], the log stood at 0.103.

As to `CC[C@H]1CN2CCc3cc(OC)c(OC)cc3[C@@H]2C[C@@H]1C[C@H]1NCCc2cc(OC)c(OC)cc21` [emetine dihydrochloride], the log is -1.42.

Consider `COc1cc([C@@H]2c3cc4c(cc3[C@H](O)[C@H]3COC(=O)[C@H]23)OCO4)cc(OC)c1OC` [podofilox], for which the log was -0.0071.

For the compound `O=[N+]([O-])c1ccc([As](=O)(O)O)cc1` [nitarsone], the log stood at 0.0837.

As to `CNC(C)[C@H](O)c1ccccc1` (some centres not stated) [ephedrine (1r,2s) hydrochloride], the log turned out to be 0.129.

In the case of `NCCc1c[nH]c2ccc(O)cc12` [serotonin hydrochloride], the log turned out to be 0.193.

`CCN(C(C)=O)c1cccc(-c2ccnc3c(C#N)cnn23)c1` [zaleplon]: the log is -0.081.

Turning to `COc1ccc(C[C@H]2NC[C@H](O)[C@H]2OC(C)=O)cc1` [anisomycin], the log is -1.44.

As to `COc1ccc2c(c1)[nH]c1c(C)nccc12` [harmine], the log is -0.0323.

On to `CC1(C)C(C=C(Cl)Cl)C1C(=O)OCc1cccc(Oc2ccccc2)c1` (configuration not stated) [permethrin], for which the log is 0.111.

For the compound `C[N+]12CCC(CC1)C(OC(=O)C(O)(c1ccccc1)c1ccccc1)C2` (configuration not stated) [clidinium bromide], the log is -0.0731.

Consider `O=C(O)CCC1NCC2CC1CN1CCCCC21` (configuration not stated) [lupanyl acid hydrochloride], for which the log came out at 0.204.

As for `OC[C@@H](O)[C@H]1O[C@@H]2O[C@H](C(Cl)(Cl)Cl)O[C@@H]2[C@H]1O` [chloralose], the log came to 0.0849.

For `COc1cc2c(cc1OC)[C@@H]1C(=O)c3ccc4oc(C(C)C)cc4c3O[C@@H]1CO2` [isorotenone], the log was -1.98.

Take `CC(=O)[C@H]1CC[C@H]2[C@@H]3CC[C@@H]4C[C@H](O)CC[C@]4(C)[C@H]3CC[C@]12C` [eltanolone]: the log was -0.054.

`CC(CC(C(N)=O)(c1ccccc1)c1ccccc1)N(C)C` (configuration not stated) [aminopentamide sulfate]: the log is -0.0666.

With `C[C@]12CC[C@H]3[C@@H](CCC4=CC(=O)CC[C@@]43C)[C@@H]1CC[C@H]2O` [epitestosterone], the log worked out at 0.0326.

On to `O=C1CCC[C@@H]2[C@H]3C[C@@H](CN12)[C@@H]1CCCCN1C3.[O-][Cl+3]([O-])([O-])O` [lupanine perchlorate], for which the log is 0.154.

With `COC[C@]12CN(C=O)[C@@H]3[C@@H]4[C@H](OC)[C@H]1[C@@]3([C@@H](OC)C[C@H]2O)[C@@H]1C[C@@]2(O)[C@H](OC(=O)c3ccccc3)[C@@H]1[C@]4(OC(C)=O)[C@@H](O)[C@@H]2OC` [oxonitine], the log came out at 0.0406.

For the compound `CC(C)=CCCC1(C)C=Cc2c(O)c3c(c(CC=C(C)C)c2O1)OC12C(=CC4CC1C(C)(C)OC2(C/C=C(/C)C(=O)O)C4O)C3=O` (configuration not stated) [dihydrogambogic acid], the log is -1.55.

Take `C[C@H]1C(=O)O[C@@H]2CCN3CC=C(COC(=O)[C@](C)(O)[C@]1(C)O)[C@H]23` [monocrotaline]: the log was 0.025.
